In patent US20080039384A1:
Results are given in words; binding and its absence hold for the method and conditions named. Some binding calls cover weakened binding; strength is not graded here.

Molecular target: 16K hPRL (16 kDa N-terminal fragment of human prolactin) (human) (UniProt P01236)
Assay: Superose 12 size exclusion chromatography in native conditions (major peak at app. M.M. 46700 against calculated M.M. 15900) and SDS-PAGE with or without beta-mercaptoethanol; non-covalent self-association

binding: binds
B1: 16K hPRL (16 kDa N-terminal fragment of human prolactin) (protein)
chain: LPICPGGAARCQVTLRDLFDRAVVLSHYIHNLSSEMFSEFDKRYTHGRGFITKAINSCHTSSLATPEDKEQAQQMNQKDFLSLIVSILRSWNEPLYHLVTEVRGMQEAPEAILSKAVEIEEQTKRLLEGMELIVSQVHP
